Results are given in words; binding and its absence hold for the method and conditions named. Binding seen in cells or lysates may run through a third protein. These calls come from enrichment with a bait or labelling near it, and not all partners need be listed. Sequences can lack the tags named with a protein.
B1: AlgFPa (protein, UniProt Q06062 29-216)
chain: DEGALYGPQAPKGSAFVRAYNAGNSELDVSVGSTSLNDVAPLGSSDFKFLPPGSYTAQVGQQSLPVKLDPDSYYTLVSQPGGKPQLVAEPPFKNKQKALVRVQNLSGSKLTLKTADGKTDVVKDVGPQSHGDREINPVKVNLALFDGSKKVSDLKPVTLARGEVVCLYVTGSGGKLAPVWVKRPVKAD
B2: AlgKPa (protein, UniProt P96956 28-475)
chain: CAGLPDQRLAQEALERGDLATAQSNYQALAAMGYADAQVGLADMQVASGDSAQQAKAEKLYREAAQTSPRARARLGKWLAAKPGASDAEHREAERLLSQAFEQGEDSALVPLIVLYLQYPQSWPEIDPQQRIDQWRARGLPQADLAQIILYRTQGTYAQHLGEIEQVCQRWLRRMDVCWYELATVYQMQGNAEKQKVLLEQLRAAYKAGRVPGERVDSVAGVLADGELGQPDPQTAQALLEEIAPSYPAAWVSLAKLLYDYPDQGDLEKMLGYLKNAQDAAQPRAELLLGRLYYDGKWAPQDPRKAERHLLKAAASEPQANYYLGQIYRRGFLGKVYPQKAVDHLILAARAGQASADMALAQLWSQGRGIQPNRVNAYVFGQLAVQQQVPQASDLLGQIEAQLPPAERSQAQQLLKREQQSRGNNWQATVSLLQSQDSPINEEEPESL

Chains of the proteins cited; added tags and fusions are not shown. Residues count along the entry.
UniProt Q51372, residues 27-474: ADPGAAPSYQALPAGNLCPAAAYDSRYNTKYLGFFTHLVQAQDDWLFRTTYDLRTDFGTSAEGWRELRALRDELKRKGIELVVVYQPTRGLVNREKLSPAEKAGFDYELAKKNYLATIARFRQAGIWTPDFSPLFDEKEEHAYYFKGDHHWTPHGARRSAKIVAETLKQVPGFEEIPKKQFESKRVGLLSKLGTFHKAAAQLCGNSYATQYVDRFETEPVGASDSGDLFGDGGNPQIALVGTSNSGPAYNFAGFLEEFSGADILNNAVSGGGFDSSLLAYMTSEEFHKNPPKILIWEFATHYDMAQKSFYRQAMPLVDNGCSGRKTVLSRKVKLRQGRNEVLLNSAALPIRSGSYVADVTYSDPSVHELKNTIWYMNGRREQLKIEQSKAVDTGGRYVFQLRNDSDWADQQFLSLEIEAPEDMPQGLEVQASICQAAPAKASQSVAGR

Biological target: AlgXPa^C-VSV-G (Pseudomonas aeruginosa PAO1) (UniProt Q51372)
Assay: affinity purification with mass spectrometry

Row | Binder | binding
1 | B1 | binds
2 | B2 | binds

Source: paper PMC10641220, “Pseudomonas aeruginosa AlgF is a protein–protein interaction mediator required for acetylation of the alginate exopolysaccharide” (The Journal of Biological Chemistry, 2023)
